The results in this text go back to PubChem BioAssay AID2685 (National Center for Advancing Translational Sciences (NCATS), 2010).

This test can be described thus: qHTS Assay for Lipid Storage Modulators in Drosophila S3 Cells.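 As to cell number change: cells counted by Cell Tracker Red CMTPX staining in the red channel.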 The conditions noted are these: BODIPY lipid droplet fluorescence, 18-24 h; for cell number change: measured here: cell count max response, cells fed with added oleic acid. Summed up: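 Laser-scanning cytometry quantifies lipid droplet accumulation (500–530 nm total intensity; droplet/cell object ratio) in oleic acid-fed (400 uM added) Drosophila S3 cells treated with a concentration series. 20 uM Triacsin C defined 100% inhibition.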

The mark [1] stands for this setting: measured here: lipid fluorescence (Fed channel) AC50, cells fed with added oleic acid.
Where [2] appears, read: measured here: cell number channel AC50, cells fed with added oleic acid.

This is one part of the list. These are further read-outs of the screen, such as a control signal, another cell line or another target. No call is given for them. Most of these compounds were active or inconclusive in the main read-out, so they are no random draw. Potencies come from curve fits of mixed quality, noted in brackets.

Broadly, the AC50 is the concentration at which the activity in the assay is half-maximal. High values mean weaker potency, low ones greater potency. As for `O=C(O)C1CCN(S(=O)(=O)c2cccnc2)CC1`, the cell number change amounted to 16.4%. Besides, the AC50 under setting [1] is 5.8 µM [falling, single point].

Consider `COC(=O)c1ccc(-n2c(C)cc(-c3csc(NC(=O)c4ccc(S(=O)(=O)N(C)C)cc4)n3)c2C)cc1`, for which the cell number change was 24.9%. In addition, under setting [2], the AC50 is 2.91 µM [rising, full curve, poor fit]. In addition, the concentration at half-maximal activity (AC50) under setting [1] is 4.11 µM [rising, single point].

As for `Cc1nc(SCC(=O)c2ccccc2)c(C#N)c(-c2ccco2)c1C(=O)NCc1ccco1`, the cell number change was 18.5%. For the same molecule, the concentration at half-maximal activity (AC50) under setting [2] is 0.291 µM [rising, partial curve, poor fit]. Also, the AC50 under setting [1] was 0.366 µM [rising, partial curve].

As to `CCn1c(SCC(=O)N2CCCc3ccccc32)nnc1-c1ccco1`, the cell number change is -10.3%.

Take `O=C(Cc1cccc2ccccc12)Nc1ccccc1C(=O)O`: the cell number change is -65.1%. The concentration at half-maximal activity (AC50) under setting [2] is 29.1 µM [falling, single point]. Besides, the AC50 under setting [1] was 29.1 µM [falling, single point].

Consider `C=CC[N+](C)(C)CCN1C(=O)C2C(c3ccccc3)C=CC(c3ccccc3)C2C1=O` (stereo not drawn), for which the cell number change is -19%. Also, under setting [1], the AC50 was 5.17 µM [falling, partial curve].

`FC(F)(F)c1ccc(Oc2ccc3ccccc3c2Br)nc1`: the cell number change was -37.5%. Moreover, under setting [2], the AC50 was 8.2 µM [falling, partial curve]. Moreover, under setting [1], the half-maximal activity concentration (AC50) was 11.6 µM [falling, partial curve].

Turning to `O=C(COc1ccc(S(=O)(=O)NC2CCCCC2)cc1)N1CCN(c2ccc(F)cc2)CC1`, the cell number change amounted to 25.3%. In addition, the AC50 under setting [1] was 10.3 µM [falling, partial curve].

Consider `O=C(Nc1ccon1)C12CC3CC(C1)CC(n1cnc([N+](=O)[O-])n1)(C3)C2`, for which, under setting [1], the AC50 was 0.58 µM [falling, single point].

`COCCNC(=S)N(CCCN(C)C)Cc1cc2cc3c(cc2[nH]c1=O)OCCO3`: the cell number change amounted to 18.6%. Moreover, the half-maximal activity concentration (AC50) under setting [1] was 29.1 µM [rising, single point].

As to `COc1ccc(CNc2cc(C)nc3ncnn23)c(OC)c1`, the cell number change is -52.7%. Also, the AC50 under setting [2] was 14.6 µM [falling, partial curve]. For the same molecule, the concentration at half-maximal activity (AC50) under setting [1] is 1.84 µM [rising, partial curve].

On to `COc1ccccc1C(=O)Nc1nnc(S(=O)(=O)N2CCCCCC2)s1`, for which the cell number change came out at 3.89%.

On to `O=C(O)c1cc([N+](=O)[O-])ccc1C(=O)Nc1ccccc1`, for which the cell number change is 4.17%.

As to `O=C(Nc1ccncc1)C1CCN(S(=O)(=O)c2c(Cl)cccc2Cl)CC1`, the cell number change is -18.7%. The concentration at half-maximal activity (AC50) under setting [1] is 1.03 µM [falling, partial curve].

As for `CCn1c(SCC(=O)N/N=C/c2c[nH]c3ccccc23)nnc1-c1ccc(C(C)(C)C)cc1`, the cell number change was -8.24%. The AC50 under setting [1] is 29.1 µM [falling, single point].

In the case of `Cc1cccc(/C=N/NC(=O)c2cc(C)nc3ccccc23)n1`, the cell number change was 33.3%. In addition, under setting [2], the AC50 is 20.6 µM [rising, single point].

On to `CC1(C)Cc2c(sc3nc4n(c(=N)c23)CCC4)CO1`, for which the cell number change was -187%. The AC50 under setting [2] was 23.1 µM [falling, partial curve]. Besides, the AC50 under setting [1] is 20.6 µM [falling, partial curve].

On to `O=C(CCC(=O)N1CCN(S(=O)(=O)c2ccc3ccccc3c2)CC1)NCC(F)(F)F`, for which the cell number change was -11.9%. Besides, under setting [1], the AC50 is 0.82 µM [falling, full curve, poor fit].

In the case of `COc1cc(/C=C2\CCC(C3CCCC3)C2=O)ccc1OC(C)C` (stereo not drawn), the cell number change was 21.3%. For the same molecule, the concentration at half-maximal activity (AC50) under setting [1] is 1.84 µM [rising, partial curve, poor fit].

On to `COc1ccc(CNC(=O)CN(c2cccc([N+](=O)[O-])c2)S(C)(=O)=O)cc1`, for which the cell number change is -44.5%. Moreover, the concentration at half-maximal activity (AC50) under setting [2] is 10.3 µM [falling, single point]. The AC50 under setting [1] was 0.00731 µM [falling, full curve, poor fit].

As for `COc1ccc([N+](=O)[O-])cc1/C=N/Nc1nn[nH]n1`, the cell number change is -36.4%. The concentration at half-maximal activity (AC50) under setting [2] was 4.61 µM [falling, full curve]. In addition, the AC50 under setting [1] is 2.59 µM [falling, single point].

In the case of `Cc1ccc(C)c(-n2nnnc2SCC(=O)c2ccc3c(c2)NC(=O)CO3)c1`, the cell number change was -62.5%. Besides, the AC50 under setting [2] was 16.4 µM [falling, single point]. Moreover, the AC50 under setting [1] was 14.6 µM [falling, single point].

Regarding `COc1ccc(CNC(=O)CSc2nc3nc(C)cc(C)n3n2)cc1`, the cell number change was -3.95%.

In the case of `O=C(CCC(=O)N1CCOc2ccc(Cl)cc21)NCCCN1CCC(Cc2ccccc2)CC1`, the cell number change is -3.17%. Under setting [1], the AC50 is 5.17 µM [falling, partial curve].

In the case of `O=C(c1ccncc1)N1CCCC(N2CCN(c3ccc(F)cc3)CC2)C1` (stereo not drawn), the cell number change was determined as 45.4%. Besides, the half-maximal activity concentration (AC50) under setting [2] was 13 µM [rising, partial curve, poor fit].

Regarding `CCC(=O)Nc1ccc(C(=O)N2CCN(C(=O)c3ccco3)CC2)cc1`, the cell number change was 19.7%. Also, under setting [2], the concentration at half-maximal activity (AC50) was 0.082 µM [falling, full curve, poor fit].

On to `O=C(NCCN1CCOCC1)c1ccc(NS(=O)(=O)c2ccccc2)cc1`, for which the cell number change was 5.2%. Also, under setting [1], the half-maximal activity concentration (AC50) is 29.1 µM [falling, single point].

Consider `COc1ccc(-n2cnnc2SCC(=O)Nc2nc(C)c(Cl)cc2Cl)cc1`, for which the concentration at half-maximal activity (AC50) is 1.46 µM [rising, partial curve] under setting [2] and 1.84 µM [rising, partial curve] under setting [1].

For `CCN(C(=O)c1cn(CC)c(=O)c2cc(OC)c(OC)cc12)c1ccccc1C`, the cell number change is 87.5%. For the same molecule, under setting [2], the AC50 was 23.1 µM [rising, single point].

`COc1ccccc1NC(=O)C1=C(C)NC(SCC(=O)c2ccc(C)cc2)=C(C#N)C1c1ccco1` (stereo not drawn): the AC50 under setting [2] is 0.411 µM [rising, single point] and the AC50 under setting [1] was 6.51 µM [rising, single point].

In the case of `CCc1nnc(NC(=O)CS(=O)(=O)c2ccccc2)s1`, the cell number change worked out at 0.833%. Under setting [1], the half-maximal activity concentration (AC50) was 0.116 µM [rising, single point].

`CCc1n[nH]c(=S)n1/N=C/c1ccccc1OCc1ccc(Cl)cc1`: the cell number change was -56.7%. Moreover, the concentration at half-maximal activity (AC50) under setting [2] was 29.1 µM [falling, single point].

Regarding `NNC(=O)c1nc[nH]c1C(=O)Nc1ccccn1`, the cell number change is 2.64%. Under setting [1], the concentration at half-maximal activity (AC50) is 8.2 µM [falling, partial curve, poor fit].

Take `Cc1ccc(NC(=O)CNc2cccc(S(=O)(=O)N3CCCC3)c2)cc1F`: the cell number change was 102%. Also, the AC50 under setting [2] was 18.4 µM [rising, partial curve].

For the molecule `O=S(=O)(NCc1ccccc1)c1ccc(Br)s1`, the AC50 under setting [1] is 29.1 µM [rising, single point].
